Values quoted from earlier work as cited in patent publication US7202219B1, “Use of D-tagatose as a prebiotic food component” (priority 1998, dated 2007).
At least one structure is not confirmed: it was looked up by name or label, or the drawing left a doubt.

Test system: colorectal tumor cell lines
Conditions: in vitro, physiological concentrations (Hague and Paraskeva 1995); cited from earlier work

Structure (SMILES): CCCC(=O)O [butyrate]
- concentration causing apoptosis: 2 to 4 mM
